# About 7,500 (2.1%) of roughly 360,000 compounds were called active. Inconclusive results, whose numbers are uncertain, are shown with a selection of clear calls. The call rests on the fitted dose curve; in most records, active means well fitted inhibition curve with a large enough effect; inconclusive means small, poorly fitted or top-dose-only effect, or effect the other way; inactive means flat fitted curve, though single readings scatter. Where the call is inconclusive, the potency comes from a doubtful curve fit.
# Assay: Nrf2 qHTS screen for inhibitors; further: nearly all actives have a fitted effect of over 60% in size
# Conditions: A549 ARE-Fluc reporter, luciferase luminescence, 18-24 h; activity change, negative = inhibition: at 46 µM (top of the series)
# Summary of the method: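 Nrf2 activity is the BugLite luminescence, read 15 min after reagent at room temperature, following CellTiter-Fluor cytotoxicity readout (30 min, 37C). Compound titrations were applied for 18-24 h to 5000 A549 ARE_Fluc cells/well in 5% FBS OPTI-MEM.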
# On the % scale 0 is the no-effect control and ±100 the full control effect; potency means the concentration at half of the fitted maximal effect.
SMILES,"activity change, negative = inhibition",Potency
Cn1c(COc2cccc3cccnc23)nnc1SCC(=O)O,inactive: -1.68%,–
COc1cc(N=Nc2ccc(C(=O)N(C)C)cc2)c(C)cc1N,–,"inconclusive: 29.1 µM [activator, single point]"
COc1ccc(CNS(=O)(=O)c2ccc3c(c2)CC(C)N3C(=O)C2CC2)cc1 (centres undefined),–,"inconclusive: 18.4 µM [falling, single point]"
COC(=O)c1scc(-c2ccc(C)cc2)c1S(=O)(=O)Nc1ccc(F)cc1F,–,"inconclusive: 20.6 µM [falling, partial curve, poor fit]"
CCOc1ccc(Cc2nc(-c3nonc3N)no2)cc1OCC,–,"inconclusive: 20.6 µM [falling, single point]"
Cc1ccsc1/C=N/NC(=O)c1ccc2c(c1)OCCO2,–,"inconclusive: 0.461 µM [activator, full curve]"
CCCCCCCCOc1ccc(C(=O)O)cc1,–,"inconclusive: 32.6 µM [falling, single point]"
COc1ccc(C2CC(c3ccccc3)=NN2c2ccc(S(N)(=O)=O)cc2)cc1 (centres undefined),inactive: -24.8%,–
CC(C)N1C(=O)/C(=C\c2nc3ccccc3c(=O)n2-c2ccccc2)c2ccccc21,–,"inconclusive: 20.6 µM [falling, single point]"
C=CCN(c1ccccc1)S(=O)(=O)c1cccc(C(=O)NCc2ccco2)c1,–,"inconclusive: 29.1 µM [falling, single point]"
COc1ccc(N2CCN(C(=O)CC34CC5CC(CC(C5)C3)C4)CC2)c([N+](=O)[O-])c1,–,"inconclusive: 18.4 µM [falling, single point]"
CC(C)COP(=O)(OCC(C)C)C(Nc1ccccc1)c1ccc2c(c1)OCO2 (centres undefined),–,"inconclusive: 18.4 µM [falling, partial curve, poor fit]"
Cc1cc(SCC(=O)c2ccc(O)c(O)c2)nc2ccccc12,–,"inconclusive: 29.1 µM [falling, single point]"
Nc1ccc2c(c1Cl)C(=O)c1ccc(N)c(Cl)c1C2=O,–,"inconclusive: 8.2 µM [activator, partial curve, poor fit]"
COc1ccc(-n2c3c(c(=O)[nH]c2=O)C(C(F)(F)F)(C(F)(F)F)N=C(CC(C)C)N3)cc1,–,"inconclusive: 0.206 µM [activator, full curve, poor fit]"
O=C(CC(=O)c1ccccc1)Nc1ccccc1,–,"inconclusive: 4.61 µM [activator, full curve]"
COc1cc(C(=S)N2CCCCC2)ccc1OCC(=O)Nc1ccc(F)cc1,–,"inconclusive: 18.4 µM [falling, single point]"
O=C(NCCc1cccs1)c1ccc(Cl)cc1,–,"inconclusive: 1.16 µM [activator, full curve]"
O=C(Nc1cccc(Cl)c1)c1ccc(F)c(S(=O)(=O)NCc2ccc3c(c2)OCO3)c1,–,"inconclusive: 23.1 µM [falling, single point]"
O=C(Nc1ccc(O)cc1)c1cc2ccccc2c(=O)s1,inactive: 14.1%,–
C[C@H]1CN([C@@H](C)CO)C(=O)c2cc(NS(=O)(=O)c3ccc(F)cc3)ccc2O[C@H]1CN(C)S(=O)(=O)c1cn(C)cn1,–,"inconclusive: 29.1 µM [activator, single point]"
COCCn1c(N)c(C(=O)OCc2ccccc2)c2nc3ccccc3nc21,–,"inconclusive: 25.9 µM [falling, single point]"

SMILES,"activity change, negative = inhibition",Potency
CCOC(=O)C1=C(C)OC(N)=C(C#N)C1c1c(C)nn(-c2ccccc2)c1Cl (centres undefined),–,"inconclusive: 29.1 µM [falling, single point]"
COc1ccc(C(=O)c2sc(Nc3ccccc3)c(C(=O)Nc3ccc(OC)c(OC)c3)c2N)cc1,–,"inconclusive: 25.9 µM [falling, partial curve, poor fit]"
O=C(CN1C(=O)C2C3c4ccccc4C(c4ccccc43)C2C1=O)Nc1cccc(C(=O)O)c1 (centres undefined),inactive: 1.68%,–
O=C(Nc1ccc2oc(-c3cccnc3)nc2c1)c1ccc(-c2ccccc2OC(F)(F)F)o1,–,active: 0.651 µM
CN(Cc1ccccc1)C(=O)c1cccc(NC(=O)Cc2ccc(NC(=O)C3CCN(C(=O)C4CCCC4)CC3)cc2)c1,–,"inconclusive: 23.1 µM [falling, partial curve, poor fit]"
Cc1cc(Cl)c(S(=O)(=O)N2CCCCCC2)cc1OCC(=O)NC1CCCCC1,inactive: 0.396%,–
CN(C(=O)COc1ccc(Br)cc1Cl)C1CCCCC1,–,"inconclusive: 16.4 µM [activator, partial curve]"
CC(=O)N(C)c1ccc(NC(=S)Nc2ccc(C(C)C)cc2)cc1,–,"inconclusive: 9.2 µM [falling, partial curve]"
Nc1ncnc2oc(-c3ccco3)c(-c3ccco3)c12,–,active: 14.6 µM
Cc1[nH]c2ccccc2c1C(=O)COC(=O)c1c(-c2c(F)cccc2Cl)noc1C,–,"inconclusive: 23.1 µM [falling, single point]"
Cc1ccc(C)c(N2CCN(S(=O)(=O)c3ccc(-c4ccc(=O)[nH]n4)o3)CC2)c1,–,"inconclusive: 18.4 µM [falling, single point]"
Cc1ccc(N2CC(C(=O)Nc3c4c(nn3C(C)(C)C)CS(=O)(=O)C4)CC2=O)cc1 (centres undefined),–,"inconclusive: 0.82 µM [falling, full curve]"
O=C(CCl)N(c1ccccc1)c1ccccc1,inactive: -7%,–
CC(C)Cc1nn2c(N)c(/C=C3\C=Nc4ccccc43)c(=O)nc2s1,–,"inconclusive: 23.1 µM [falling, single point]"
COc1ccc(C2CC(=O)N(Cc3ccc(F)cc3)c3ccccc3S2)cc1OC (centres undefined),–,"inconclusive: 29.1 µM [falling, single point]"
N=NC(=O)c1ccccc1Nc1c(O)[nH]c2ccccc12,–,"inconclusive: 29.1 µM [falling, single point]"
COc1ccc(OCCCCc2c(C)n[nH]c2C)cc1,–,"inconclusive: 16.4 µM [falling, single point]"
COc1ccccc1C(=O)NCCn1cc(SCc2ccc(C)cc2)c2ccccc21,–,"inconclusive: 25.9 µM [falling, single point]"
Cc1sc(NC(=O)c2ccco2)c(C(c2cccnc2)N2CCC(C)CC2)c1C (centres undefined),–,"inconclusive: 29.1 µM [falling, single point]"
c1ccc(N2CCN(Cc3cccn3-c3nnc(N4CCN(C5CCCCC5)CC4)s3)CC2)cc1,–,"inconclusive: 20.6 µM [activator, partial curve, poor fit]"
CCc1ccccc1NS(=O)(=O)c1ccc2c(c1)CCN2C(=O)C1CC1,–,"inconclusive: 29.1 µM [falling, single point]"
COc1ccc(CCn2c(=N)c(C(=O)NC3CCCCC3)cc3c(=O)n4ccccc4nc32)cc1,–,"inconclusive: 13 µM [falling, partial curve]"

SMILES,"activity change, negative = inhibition",Potency
COc1ccc(S(=O)(=O)N2CCCCCC2)cc1C(=O)N1CCN(c2ccccc2C)CC1,–,"inconclusive: 20.6 µM [falling, single point]"
COc1ccc(-c2cc3ccc(OC)cc3cn2)cc1,–,"inconclusive: 2.06 µM [activator, partial curve]"
c1ccc(-c2nc(N3CCCCCC3)nc(-n3ccnc3)n2)cc1,inactive: 3.5%,–
Cc1cc(C)c2c(-n3cccc3)c(C(=O)NNS(=O)(=O)c3ccc(Br)cc3)sc2n1,–,"inconclusive: 29.1 µM [falling, single point]"
O=C(CCCc1ccccc1)Nc1ccc2c(c1)OCCO2,–,"inconclusive: 1.64 µM [activator, full curve]"
CCOC(=O)CNC(=O)CSc1nc(-c2ccc(C)cc2)ns1,–,"inconclusive: 0.58 µM [falling, full curve, poor fit]"
O=C1C(NS(=O)(=O)c2cccs2)=C(N2CCN(c3cccc(Cl)c3)CC2)C(=O)c2ccccc21,–,active: 20.6 µM
COC(=O)[C@H]1[C@H]2C[C@@H]3c4[nH]c5cc(OC)ccc5c4CCN3C[C@H]2C[C@@H](OC(=O)/C=C/c2cc(OC)c(OC)c(OC)c2)[C@@H]1OC,inactive: -19.9%,–
Cc1ccc(-c2ccnc(=S)[nH]2)cc1,inactive: 5.63%,–
Cc1ccc(Cc2cnc(N3C(=N)SC(C)C3=O)s2)cc1 (centres undefined),–,"inconclusive: 2.06 µM [falling, partial curve, poor fit]"
CC(=O)Oc1ccc(-c2ccc(C(=O)Nc3cccc(S(=O)(=O)N4CCOCC4)c3)cc2)cc1,–,active: 13 µM
COc1cc(NS(=O)(=O)c2ccc(NS(=O)(=O)c3ccc(NC(C)=O)cc3)cc2)nc(OC)n1,–,"inconclusive: 6.51 µM [activator, partial curve, poor fit]"
CC(C)Cn1c(=O)c2sccc2n2c(CCCC(=O)NCCc3ccc(Cl)cc3)nnc12,inactive: -16.5%,–
O=C(Nc1ccc(Cl)cc1)Nc1cccc(C(=O)O)c1,–,"inconclusive: 4.61 µM [activator, partial curve]"
COc1cc(C(=O)Nc2nc3ccc(C)cc3s2)ccc1OCc1c(C)noc1C,inactive: 1.99%,–
CCOc1cc(N2CCOCC2)c(OCC)cc1NC(=O)c1ccc(C)s1,–,"inconclusive: 25.9 µM [falling, partial curve, poor fit]"
c1ccc2c(c1)CCN(c1nc3cc4c(cc3s1)OCO4)C2,–,"inconclusive: 7.31 µM [activator, partial curve]"
CC(C)(C)C1CCC2(CC1)CC(=O)c1ccccc1O2 (centres undefined),inactive: -18.3%,–
CCc1ccc(NC(=O)CSc2nc(-c3ccccc3Cl)nc3c2Cc2c(CO)cnc(C)c2O3)cc1,–,"inconclusive: 13 µM [activator, partial curve, poor fit]"
COc1cccc(OCC(=O)NNC(=O)C(=O)Nc2cccc(C)c2)c1,–,"inconclusive: 4.11 µM [activator, full curve]"

# Exported as tab-separated lines: two of the compounds above
SMILES	activity change, negative = inhibition	Potency
O=C(Nc1ccc(Cl)cc1)Nc1cccc(C(=O)O)c1	–	inconclusive: 4.61 µM [activator, partial curve]
COc1cc(C(=O)Nc2nc3ccc(C)cc3s2)ccc1OCc1c(C)noc1C	inactive: 1.99%	–

# Source: PubChem BioAssay AID504444 (National Center for Advancing Translational Sciences (NCATS), 2011)
